Source: article PMC4709192
These are yes or no findings as the source states them, for the method shown. Binding seen in cells or lysates may run through a third protein. Where a sequence is shown, tags or fusion partners need not be part of it.

Sequences of proteins named here, by UniProt entry; tags and fusion partners are left off.
UniProt P98175: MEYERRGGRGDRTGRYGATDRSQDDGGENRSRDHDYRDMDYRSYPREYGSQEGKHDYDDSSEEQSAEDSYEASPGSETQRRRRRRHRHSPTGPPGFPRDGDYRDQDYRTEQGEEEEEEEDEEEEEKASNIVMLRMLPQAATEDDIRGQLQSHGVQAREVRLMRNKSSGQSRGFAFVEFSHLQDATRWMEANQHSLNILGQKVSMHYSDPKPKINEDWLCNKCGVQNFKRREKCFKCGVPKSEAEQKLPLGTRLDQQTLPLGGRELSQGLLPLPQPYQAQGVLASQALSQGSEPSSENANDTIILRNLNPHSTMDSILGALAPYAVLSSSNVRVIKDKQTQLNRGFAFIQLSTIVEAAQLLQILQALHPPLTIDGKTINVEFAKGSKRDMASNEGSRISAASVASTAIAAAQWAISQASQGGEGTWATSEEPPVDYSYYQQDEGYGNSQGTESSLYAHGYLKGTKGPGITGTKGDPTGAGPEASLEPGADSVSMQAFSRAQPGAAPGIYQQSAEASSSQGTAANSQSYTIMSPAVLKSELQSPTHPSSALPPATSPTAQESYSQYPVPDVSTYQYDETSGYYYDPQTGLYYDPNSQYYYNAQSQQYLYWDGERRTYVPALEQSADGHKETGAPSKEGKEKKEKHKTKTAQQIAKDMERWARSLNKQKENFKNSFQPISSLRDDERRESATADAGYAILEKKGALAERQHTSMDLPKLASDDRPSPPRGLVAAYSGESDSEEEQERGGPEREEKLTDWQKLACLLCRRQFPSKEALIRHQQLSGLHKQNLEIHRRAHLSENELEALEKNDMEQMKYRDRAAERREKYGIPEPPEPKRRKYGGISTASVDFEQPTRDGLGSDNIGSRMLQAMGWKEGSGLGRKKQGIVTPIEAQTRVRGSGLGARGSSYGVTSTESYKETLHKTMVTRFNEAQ

Molecular target: HA-tagged RBM10 (full length, wild-type) (human) (UniProt P98175)
Assay: co-IP; HEK293T cells transiently co-transfected; lysis buffer 50 mM Tris-HCl pH 8.0, 10% glycerol, 0.1% NP-40, 100 mM NaCl; HA-RBM10 precipitated with anti-HA agarose 1 hour at 4°C; Western blot

binding: no binding
B1: N-terminal half of Flag-FilGAP (NT) (domain or fragment, UniProt Q8N264-1 1-391)
chain: MEENNDSTENPQQGQGRQNAIKCGWLRKQGGFVKTWHTRWFVLKGDQLYYFKDEDETKPLGTIFLPGNKVSEHPCNEENPGKFLFEVVPGGDRDRMTANHESYLLMASTQNDMEDWVKSIRRVIWGPFGGGIFGQKLEDTVRYEKRYGNRLAPMLVEQCVDFIRQRGLKEEGLFRLPGQANLVKELQDAFDCGEKPSFDSNTDVHTVASLLKLYLRELPEPVIPYAKYEDFLSCAKLLSKEEEAGVKELAKQVKSLPVVNYNLLKYICRFLDEVQSYSGVNKMSVQNLATVFGPNILRPKVEDPLTIMEGTVVVQQLMSVMISKHDCLFPKDAELQSKPQDGVSNNNEIQKKATMGQLQNKENNNTKDSPSRQCSWDKSESPQRSSMNNGS
